Experimental data: PubChem BioAssay AID504467 (National Center for Advancing Translational Sciences (NCATS), 2011)
In all, about 330,000 compounds went through this assay and about 7,700 (2.3%) were called active. The inconclusive results got no clear call from the source; some entries with a clear call stand among them for comparison. Calls come from the whole dose curve; as a rule, active = well fitted inhibition curve with a large enough effect; inconclusive = small, poorly fitted or top-dose-only effect, or effect the other way; inactive = flat fitted curve, though single readings scatter. Potencies beside an inconclusive call are fits to weak or partial responses and may not hold up.

Assay: qHTS screen for small molecules that inhibit ELG1-dependent DNA repair in human embryonic kidney (HEK293T) cells expressing luciferase-tagged ELG1; note: nearly all actives have a fitted effect of over 55% in size
Details: HEK293T ELG1-luciferase reporter, luminescence, 16 h, DNA damage induced by 5-fluorouridine; series mostly up to 46.1 µM
In short: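 5-Fluorouridine DNA damage + compound/DMSO, 2,000 cells/well, 16 h, 37 °C/5% CO2. ONE-Glo, 30 min RT, luminescence. Readout = decrease in reporter signal.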
Potency is the fitted concentration of half-maximal effect.

Row | SMILES | Potency
1 | COc1cc(CNC2CCCCCC2)cc(OC)c1O | inactive
2 | Cc1onc(-c2ccccc2)c1C(=O)OCC(=O)NC(C)c1ccc(Cl)cc1 (centres undefined) | inconclusive: 32.6 µM [inhibitor, single point]
3 | Cc1cc(C)cc(Oc2ccccc2C=O)c1 | inconclusive: 32.6 µM [activator, single point]
4 | CN(Cc1ccccc1Cl)C(=O)CCNC(=O)c1ccco1 | inactive
5 | C=C(C)CN(CC)c1nc(N)c(C#N)c(CC#N)c1C#N | inactive
6 | Cc1ccc(S(=O)(=O)NCc2ccc(C(=O)N3CCc4ccccc4C3)cc2)cc1 | inconclusive: 14.6 µM [inhibitor, partial curve, poor fit]
7 | Cc1ccc(-n2nnnc2SCc2nc3sc(C)c(C)c3c(=O)[nH]2)cc1 | inactive
8 | CCCCC1(O)CC(C(F)(F)F)=NN1C(=O)COc1ccccc1 (centres undefined) | inconclusive: 23.1 µM [inhibitor, single point]
9 | Cn1c(=O)c2c(nc(NCc3cccnc3)n2Cc2cccc(C(F)(F)F)c2)n(C)c1=O | inconclusive: 16.4 µM [inhibitor, single point]
10 | CCOc1cc(/C=C(\C#N)C(=O)Nc2cccc(C(=O)O)c2)cc(Br)c1OC(=O)c1ccc(OC)cc1 | inconclusive: 16.4 µM [activator, single point]
11 | O=C(COC(=O)Cc1c(Cl)cccc1Cl)NCc1ccco1 | inconclusive: 25.9 µM [activator, single point]
12 | COc1ccc(CC2(CO)CCN(CC3=Cc4cc(Cl)ccc4OC3)CC2)cc1 | inactive
13 | CCN(CC)S(=O)(=O)c1ccc(N2CCCCC2)c(NC(=O)/C(C#N)=C/c2ccc(OC)cc2)c1 | inconclusive: 10.3 µM [inhibitor, partial curve, poor fit]
14 | COc1cccc(NC(=O)Nc2nccc(C)n2)c1 | inconclusive: 1.83 µM [activator, partial curve]
15 | Cc1ccc(OCC(=O)Nc2ccccc2-c2ccccc2)cc1 | inactive
16 | Cc1ccc(N2C(=O)C(NC(=O)c3ccccc3)(C(F)(F)F)C3=C2CC(C)(C)CC3=O)cc1 (centres undefined) | inactive
17 | COc1ccccc1/C=C1\SC(=S)N(NS(=O)(=O)c2ccc(C)cc2)C1=O | inactive
18 | COc1cc(NC(=O)c2[nH]c(C)c(C(C)=O)c2C)cc(OC)c1OC | inactive
19 | Cc1ccc(NC(=O)COC(=O)/C=C/c2cccs2)cc1 | inconclusive: 32.6 µM [activator, partial curve, poor fit]
20 | COc1ccc(-c2ccc3c(c2)c(C#Cc2ccsc2)c(-c2cc(OC)cc(OC)c2)n3C)cc1 | inconclusive: 32.6 µM [activator, partial curve, poor fit]
21 | CS(=O)(=O)N1CCc2cc(C(=O)N3CCN(c4cccc(Cl)c4)CC3)ccc21 | inconclusive: 18.3 µM [inhibitor, single point]
22 | Cc1ccc(S(=O)(=O)N2CCCOC2CNC(=O)C(=O)NC2CCCCC2)cc1 (centres undefined) | inactive
23 | Cc1c(OCC(=O)N2C[C@H]3C[C@@H](C2)c2cccc(=O)n2C3)ccc2c3c(c(=O)oc12)CCC3 | inconclusive: 18.3 µM [activator, single point]
24 | Cc1ccc2nc(N3CCN(C)CC3)c(C#N)cc2c1 | inconclusive: 20.6 µM [activator, single point]
25 | COc1ccc(NC(=O)CN2CCN(CC(=O)Nc3ccc(F)cc3F)CC2)cc1 | inactive

Row | SMILES | Potency
26 | Cc1nnc(N/N=C/c2cc([N+](=O)[O-])c(N3CCC(C)CC3)cc2N2CCC(C)CC2)n1N | inconclusive: 25.9 µM [inhibitor, single point]
27 | c1ccc2c(c1)CCN(C1=Nc3cccc4cccc1c34)C2 | inconclusive: 25.9 µM [activator, partial curve, poor fit]
28 | O=C(Nc1cccc(Cl)c1)Nc1nc(-c2ccc(Cl)cc2)cs1 | inactive
29 | CC1CCc2c(sc(NC(=O)Cn3nc(C(F)(F)F)c4c3CCCCC4)c2C#N)C1 (centres undefined) | inactive
30 | CC(=O)Nc1ccc(-n2c(C)ccc2C)cc1 | inconclusive: 20.6 µM [activator, partial curve]
31 | Cc1cccc(Nc2nnc(SCc3cc(=O)n4cc(C)ccc4n3)s2)c1 | inconclusive: 16.4 µM [inhibitor, single point]
32 | COCc1ccc(CN2CCC(C(=O)Nc3cccc(-c4cscn4)c3)CC2)o1 | inactive
33 | COC(=O)c1sc(N)c(C(=O)OC)c1COC(=O)[C@@H](NS(=O)(=O)c1cccc(Cl)c1)C(C)C | active: 14.6 µM
34 | COc1cccc(NC(=O)Cn2nnc(C(=O)NCc3cccs3)c2N)c1 | inactive
35 | CC(SCC(=O)NC12CC3CC(CC(C3)C1)C2)C(=O)O (centres undefined) | inactive
36 | O=C(COC(=O)C1=NN(c2ccccc2)C(=O)CC1)NCc1ccccc1Cl | inactive
37 | CCOC(=O)c1cnn2cc(-c3[nH]ncc3[N+](=O)[O-])cnc12 | inconclusive: 18.4 µM [activator, single point]
38 | CCC(C)(C)NC(=O)c1ccc2c(c1)N(CC(=O)N1CCCC1)C(=O)C(C)(C)O2 | inconclusive: 20 µM [activator, single point]
39 | CC(=O)/C(=N\Nc1ccccc1Cl)Sc1cccc2cccnc12 | inactive
40 | C[C@H](NC(=O)c1nc[nH]c1C(=O)N[C@@H](Cc1ccccc1)C(=O)OC(C)(C)C)c1ccccc1 | inconclusive: 18.3 µM [inhibitor, single point]
41 | CCN(C(=O)c1ccc2c(Cl)c3c(nc2c1)CCC3)c1ccc(C)c(C)c1 | inconclusive: 23.1 µM [inhibitor, single point]
42 | CN1C(=O)C(O)(CC(=O)/C=C\c2ccc3c(c2)OCO3)c2ccccc21 (centres undefined) | inactive
43 | Cc1cc(C(=O)N2CCCc3ccccc32)ccc1[N+](=O)[O-] | inactive
44 | COc1ccc(NC(=O)CN2C(=O)COc3ccc(S(=O)(=O)N4CCCCC4)cc32)c(OC)c1 | inactive
45 | O=C(NNC1CC(=O)N(c2ccccc2)C1=O)c1ccccc1Cl (centres undefined) | inactive
46 | O=C(Cc1c(Cl)cccc1Cl)N/N=C/c1cccnc1 | inactive
47 | O=C(Nc1ccc(Oc2ccccc2)cc1)C1CCN(c2c3c(nc4ncnn24)CCC3)CC1 | active: 16.4 µM
48 | CCOC(=O)C1CCCCN1C(=O)CCc1c(C)nc2cc(-c3ccccc3)nn2c1C (centres undefined) | inconclusive: 29.1 µM [inhibitor, single point]
49 | Cc1cccc(-c2nn(-c3ccccc3)cc2C(=O)N2CCN(C3CCS(=O)(=O)C3)CC2)c1 (centres undefined) | inactive
50 | CCOC(=O)N1CCN(C(=S)Nc2ccc3nc(N4CCN(CC)CC4)cc(C)c3c2)CC1 | inconclusive: 18.4 µM [inhibitor, partial curve]

Row | SMILES | Potency
51 | COc1ccc(OC)c(S(=O)(=O)NCC(c2cccs2)N2CCc3ccccc3C2)c1 (centres undefined) | inactive
52 | CCOC(=O)C1=C2NC(=O)c3ccccc3N2C(=O)C1 | inactive
53 | CN(CCC(=O)Nc1cc(S(=O)(=O)N(C)C)ccc1Cl)CC(=O)Nc1ccc(F)cc1 | inactive
54 | COc1ccc2oc(=O)c(C(=O)NC3CCCCCC3)cc2c1 | inconclusive: 23.1 µM [activator, single point]
55 | C=CCN1CCN(C(c2cccc(OC)c2OC)c2nnnn2CCC(C)C)CC1 (centres undefined) | inactive
56 | CN(CC(=O)Nc1ccc(OC(F)F)cc1)S(=O)(=O)/C=C/c1ccccc1 | inactive
57 | O=C(Nc1ccc(N2CCN(C(=O)c3ccccc3)CC2)c(Cl)c1)c1ncn[nH]1 | inconclusive: 20.6 µM [inhibitor, single point]
58 | Cc1ccccc1NC(=S)NC(C)C(c1cccs1)N1CCOCC1 (centres undefined) | inactive
59 | CCOc1ccc(CCNC(=O)c2nn(C)c3c2CS(=O)(=O)c2ccccc2-3)cc1OCC | active: 18.3 µM
60 | CCN(CC(=O)NCc1cccs1)CC(=O)Nc1cccc(S(N)(=O)=O)c1 | inactive
61 | COCCn1c(-c2ccccc2)nc2ccccc21 | inconclusive: 29.1 µM [activator, single point]
62 | Cc1ccc(S(=O)(=O)NCCNc2ccc([N+](=O)[O-])cc2C(F)(F)F)cc1 | inconclusive: 20.6 µM [inhibitor, single point]
63 | Cc1ccc(C)c(NC(=O)Cc2ccc(S(=O)(=O)N3CCCCC3)s2)c1 | inactive
64 | COC(=O)c1ccc(C)c(NC(=O)c2nn(C)c(=O)c3ccccc23)c1 | inactive
65 | COc1ccccc1NC(=O)N(Cc1ccc2c(c1)OCO2)Cc1nc2ccccc2c(=O)[nH]1 | inconclusive: 7.31 µM [inhibitor, partial curve]
66 | CC(=O)Nc1ccc(S(=O)(=O)NC2CCCCCC2)cc1 | inactive
67 | CN1CCN(CCCNC(=O)CCC(=O)N2CCOc3ccccc32)CC1 | inconclusive: 20.6 µM [activator, single point]
68 | Cc1ccc(CNC(=O)COC(=O)C2CC2)cc1 | inconclusive: 25.9 µM [activator, single point]
69 | Cc1ccccc1NC(=O)Cc1nc(COC(=O)c2ccc(S(C)(=O)=O)c([N+](=O)[O-])c2)cs1 | inconclusive: 29.1 µM [inhibitor, single point]
70 | COC(=O)c1ccc(Nc2nc(N3CCOCC3)nc(N3CCOCC3)n2)cc1 | inconclusive: 29.1 µM [inhibitor, single point]
71 | COc1ccc(NC(=S)NC(=O)c2ccc(Br)o2)cc1 | inconclusive: 16.4 µM [activator, partial curve]
72 | Cc1cc(NC(=O)/C=C/c2ccccc2Cl)no1 | inconclusive: 3.26 µM [activator, full curve]
73 | COCc1cc(C)nc(N/N=C/c2ccc(-c3cc(C(=O)O)ccc3Cl)o2)c1C#N | inactive
74 | COc1ccccc1CNC(=O)C1CCN(S(=O)(=O)c2ccc3nc4c(c(C(=O)O)c3c2)CCCC4)CC1 | inactive

Fetched one by one from the entries so far:
Row | SMILES | Potency
62 | Cc1ccc(S(=O)(=O)NCCNc2ccc([N+](=O)[O-])cc2C(F)(F)F)cc1 | inconclusive: 20.6 µM [inhibitor, single point]
58 | Cc1ccccc1NC(=S)NC(C)C(c1cccs1)N1CCOCC1 (centres undefined) | inactive
60 | CCN(CC(=O)NCc1cccs1)CC(=O)Nc1cccc(S(N)(=O)=O)c1 | inactive
73 | COCc1cc(C)nc(N/N=C/c2ccc(-c3cc(C(=O)O)ccc3Cl)o2)c1C#N | inactive
68 | Cc1ccc(CNC(=O)COC(=O)C2CC2)cc1 | inconclusive: 25.9 µM [activator, single point]
64 | COC(=O)c1ccc(C)c(NC(=O)c2nn(C)c(=O)c3ccccc23)c1 | inactive
66 | CC(=O)Nc1ccc(S(=O)(=O)NC2CCCCCC2)cc1 | inactive
